Results are given in words; binding and its absence hold for the method and conditions named. In cells and extracts the contact can be indirect. Tags and fused reporters may be left off the sequences shown. Each block holds one binder with its values, some of them ahead of it.
Target: T1, GST-mFOG1 (aa 1-45) (mouse) (UniProt O35615)
T1 sequence: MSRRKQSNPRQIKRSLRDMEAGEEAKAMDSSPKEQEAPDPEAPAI
Experiment: pull-down; 10-20 μg GST fusion on Glutathione Sepharose with 1 mg S2 cell nuclear extract or Drosophila embryo nuclear extract (TRAX); overnight at 4°C; 25 mM Hepes/KOH pH 7.6, 150 mM KCl, 0.1% NP-40; Western blot; only the target purified

- binding: no binding
B1: dPc (protein, UniProt P26017 1-390)
chain: MTGRGKGSKGKLGRDNATDDPVDLVYAAEKIIQKRVKKGVVEYRVKWKGWNQRYNTWEPEVNILDRRLIDIYEQTNKSSGTPSKRGIKKKEKEPDPEPESEEDEYTFTENDVDTHQATTSSATHDKESKKEKKHHHHHHHHHHIKSERNSGRRSESPLTHHHHHHHHESKRQRIDHSSSSNSSFTHNSFVPEPDSNSSSSEDQPLIGTKRKAEVLKESGKIGVTIKTSPDGPTIKPQPTQQVTPSQQQPFQDQQQAEKIASEAATQLKSEQQATPLATEAINTTPAESGAEEEEVANEEGNQQAPQVPSENNNIPKPCNNLAINQKQPLTPLSPRALPPRFWLPAKCNISNRVVITDVTVNLETVTIRECKTERGFFRERDMKGDSSPVA

- binding: no binding
B2: dCHD3 (enzyme, UniProt O16102 1-892)
chain: MSSKRGADPDWKTPGKASKDKRPKTNAKKQKFRDEEYCKVCSDGGDLLCCDSCPSVYHRTCLSPPLKSIPKGDWICPRCIPLPGKAEKILSWRWALDRSVELRTSKGEKRREYFIKWHGMSYWHCEWIPEGQMLLHHASMVASFQRRSDMEEPSLEELDDQDGNLHERFYRYGIKPEWLLVQRVINHSEEPNGGTMYLVKWRELSYNDSSWERESDSIPGLNQAIALYKKLRSSNKGRQRDRPAPTIDLNKKYEDQPVFLKEAGLKLHPFQIEGVSWLRYSWGQGIPTILADEMGLGKTIQTVVFLYSLFKEGHCRGPFLISVPLSTLTNWERELELWAPELYCVTYVGGKTARAVIRKHEISFEEVTTKTMRENQTQYKFNVMLTSYEFISVDAAFLGCIDWAALVVDEAHRLRSNQSKFFRILSKYRIGYKLLLTGTPLQNNLEELFHLLNFLSSGKFNDLQTFQAEFTDVSKEEQVKRLHEILEPHMLRRLKADVLKSMPPKSEFIVRVELSSMQKKFYKHILTKNFKALNQKGGGRVCSLLNIMMDLRKCCNHPYLFPSAAEEATISPSGLYEMSSLTKASGKLDLLSKMLKQLKADNHRVLLFSQMTKMLNVLEHFLEGEGYQYDRIDGSIKGDLRQKAIDRFNDPVSEHFVFLLSTRAGGLGINLATADTVIIFDSDWNPHNDVQAFSRAHRMGQKKKVMIYRFVTHNSVEERIMQVAKHKMMLTHLVVRPGMGGMTTNFSKDELEDILRFGTEDLFKDGKSEAIHYDDKAVADLLDRTNRGIEEKESWANEYLSSFKVASYATKEDHEEHDDYNNDAENTDPFYWENLMGKSQPKLPKKQKKQSQQSQVDVESIMGKGKRIRKEIDYSNQYPSPNRATPSSIVLM
